Laboratory results published in PMC7176661.
Results are given in words; binding and its absence hold for the method and conditions named. In cells and extracts the contact can be indirect. These calls come from enrichment with a bait or labelling near it, and not all partners need be listed. For part of these data: No binding means not detected with the bait. For part of these data: Where a sequence is shown, tags or fusion partners need not be part of it. Values belong to the molecule of their own block, whether it stands above or below them.

The chains behind the UniProt entries cited, without tags or fusion partners. Where a name states a change or a piece, a line headed by the entry shows the natural chain unless it says otherwise. Residues count along the entry.
UniProt P06709: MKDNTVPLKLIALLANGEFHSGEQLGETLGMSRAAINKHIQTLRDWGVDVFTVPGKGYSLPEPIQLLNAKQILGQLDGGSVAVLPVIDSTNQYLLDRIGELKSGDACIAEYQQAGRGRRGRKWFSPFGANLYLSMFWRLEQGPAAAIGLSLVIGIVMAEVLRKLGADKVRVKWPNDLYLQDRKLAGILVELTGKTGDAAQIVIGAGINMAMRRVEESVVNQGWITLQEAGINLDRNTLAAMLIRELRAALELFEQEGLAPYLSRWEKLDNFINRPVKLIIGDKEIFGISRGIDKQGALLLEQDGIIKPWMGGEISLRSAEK
UniProt P62993: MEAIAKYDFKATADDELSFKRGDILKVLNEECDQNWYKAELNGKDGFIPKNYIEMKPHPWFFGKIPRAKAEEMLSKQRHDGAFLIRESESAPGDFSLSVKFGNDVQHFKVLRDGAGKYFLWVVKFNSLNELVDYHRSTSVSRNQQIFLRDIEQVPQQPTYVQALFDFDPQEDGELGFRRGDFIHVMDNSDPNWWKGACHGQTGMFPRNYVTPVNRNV
UniProt O00151: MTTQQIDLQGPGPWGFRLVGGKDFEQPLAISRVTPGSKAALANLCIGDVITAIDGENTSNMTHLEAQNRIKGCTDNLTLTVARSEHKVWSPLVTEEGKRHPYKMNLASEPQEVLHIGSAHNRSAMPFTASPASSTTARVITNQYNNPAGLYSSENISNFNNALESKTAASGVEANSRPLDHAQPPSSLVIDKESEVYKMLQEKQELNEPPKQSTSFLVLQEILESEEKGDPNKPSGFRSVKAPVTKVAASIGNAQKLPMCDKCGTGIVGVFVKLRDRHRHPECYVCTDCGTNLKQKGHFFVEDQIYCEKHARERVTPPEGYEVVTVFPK
UniProt O75815: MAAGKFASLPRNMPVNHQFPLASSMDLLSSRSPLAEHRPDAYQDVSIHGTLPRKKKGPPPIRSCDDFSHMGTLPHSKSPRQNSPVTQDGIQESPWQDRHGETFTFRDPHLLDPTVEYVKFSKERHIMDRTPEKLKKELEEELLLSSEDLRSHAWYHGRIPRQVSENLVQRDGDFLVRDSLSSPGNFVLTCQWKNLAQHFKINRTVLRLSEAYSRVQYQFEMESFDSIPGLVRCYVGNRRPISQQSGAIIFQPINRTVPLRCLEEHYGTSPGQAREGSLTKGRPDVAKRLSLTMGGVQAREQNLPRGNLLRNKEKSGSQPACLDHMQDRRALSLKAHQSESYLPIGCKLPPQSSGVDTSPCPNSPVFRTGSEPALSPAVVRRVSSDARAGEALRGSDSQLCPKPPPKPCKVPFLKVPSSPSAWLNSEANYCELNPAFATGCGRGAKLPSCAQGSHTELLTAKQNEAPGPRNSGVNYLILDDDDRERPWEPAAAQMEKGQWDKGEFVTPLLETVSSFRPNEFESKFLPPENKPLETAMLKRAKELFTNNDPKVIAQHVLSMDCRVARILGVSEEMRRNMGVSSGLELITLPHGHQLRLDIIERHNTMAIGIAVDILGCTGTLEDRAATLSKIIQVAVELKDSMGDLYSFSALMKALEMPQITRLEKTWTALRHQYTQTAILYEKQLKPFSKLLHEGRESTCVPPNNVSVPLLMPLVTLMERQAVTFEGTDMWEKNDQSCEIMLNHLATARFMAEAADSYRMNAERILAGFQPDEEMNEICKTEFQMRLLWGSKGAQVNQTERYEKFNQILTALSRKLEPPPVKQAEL
UniProt Q14195: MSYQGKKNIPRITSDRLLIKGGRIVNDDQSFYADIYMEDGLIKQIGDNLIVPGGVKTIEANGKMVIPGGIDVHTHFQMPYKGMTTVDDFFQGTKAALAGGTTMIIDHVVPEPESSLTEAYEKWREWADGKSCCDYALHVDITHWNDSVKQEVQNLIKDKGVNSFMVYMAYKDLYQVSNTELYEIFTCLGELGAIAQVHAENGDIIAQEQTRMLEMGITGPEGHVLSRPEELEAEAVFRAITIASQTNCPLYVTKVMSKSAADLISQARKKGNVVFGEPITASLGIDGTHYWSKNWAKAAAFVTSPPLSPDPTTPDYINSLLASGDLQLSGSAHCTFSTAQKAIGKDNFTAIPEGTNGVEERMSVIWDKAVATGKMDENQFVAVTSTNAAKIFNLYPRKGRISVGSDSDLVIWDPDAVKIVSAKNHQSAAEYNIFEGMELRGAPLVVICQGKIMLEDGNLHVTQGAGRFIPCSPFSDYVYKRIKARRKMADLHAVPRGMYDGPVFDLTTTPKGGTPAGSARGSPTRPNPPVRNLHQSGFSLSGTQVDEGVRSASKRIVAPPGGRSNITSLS
UniProt Q9UJU6: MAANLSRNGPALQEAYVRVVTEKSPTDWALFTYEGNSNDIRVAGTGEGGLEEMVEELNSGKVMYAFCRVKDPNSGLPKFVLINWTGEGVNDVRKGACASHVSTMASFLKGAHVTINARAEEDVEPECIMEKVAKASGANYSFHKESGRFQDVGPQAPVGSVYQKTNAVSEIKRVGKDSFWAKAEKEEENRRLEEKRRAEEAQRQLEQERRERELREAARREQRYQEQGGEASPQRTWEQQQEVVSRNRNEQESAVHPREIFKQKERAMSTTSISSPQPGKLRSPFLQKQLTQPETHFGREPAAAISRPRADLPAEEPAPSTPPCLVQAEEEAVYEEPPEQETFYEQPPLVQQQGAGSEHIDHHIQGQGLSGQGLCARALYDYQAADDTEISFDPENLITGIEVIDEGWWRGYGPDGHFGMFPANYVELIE
UniProt O00401: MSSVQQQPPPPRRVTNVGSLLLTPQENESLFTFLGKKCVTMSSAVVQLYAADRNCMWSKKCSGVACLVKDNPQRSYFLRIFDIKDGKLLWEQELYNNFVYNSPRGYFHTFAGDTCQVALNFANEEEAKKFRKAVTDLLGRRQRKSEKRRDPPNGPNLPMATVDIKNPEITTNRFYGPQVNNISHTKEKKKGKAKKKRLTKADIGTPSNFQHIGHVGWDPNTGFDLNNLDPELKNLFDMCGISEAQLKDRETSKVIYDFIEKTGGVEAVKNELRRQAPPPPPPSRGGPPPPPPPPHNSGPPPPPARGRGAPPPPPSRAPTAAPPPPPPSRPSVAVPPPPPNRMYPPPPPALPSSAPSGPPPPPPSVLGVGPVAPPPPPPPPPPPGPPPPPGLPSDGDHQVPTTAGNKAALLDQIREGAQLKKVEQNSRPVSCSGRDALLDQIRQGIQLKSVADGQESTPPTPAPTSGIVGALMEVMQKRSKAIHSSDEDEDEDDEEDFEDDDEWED
UniProt Q9Y6M1: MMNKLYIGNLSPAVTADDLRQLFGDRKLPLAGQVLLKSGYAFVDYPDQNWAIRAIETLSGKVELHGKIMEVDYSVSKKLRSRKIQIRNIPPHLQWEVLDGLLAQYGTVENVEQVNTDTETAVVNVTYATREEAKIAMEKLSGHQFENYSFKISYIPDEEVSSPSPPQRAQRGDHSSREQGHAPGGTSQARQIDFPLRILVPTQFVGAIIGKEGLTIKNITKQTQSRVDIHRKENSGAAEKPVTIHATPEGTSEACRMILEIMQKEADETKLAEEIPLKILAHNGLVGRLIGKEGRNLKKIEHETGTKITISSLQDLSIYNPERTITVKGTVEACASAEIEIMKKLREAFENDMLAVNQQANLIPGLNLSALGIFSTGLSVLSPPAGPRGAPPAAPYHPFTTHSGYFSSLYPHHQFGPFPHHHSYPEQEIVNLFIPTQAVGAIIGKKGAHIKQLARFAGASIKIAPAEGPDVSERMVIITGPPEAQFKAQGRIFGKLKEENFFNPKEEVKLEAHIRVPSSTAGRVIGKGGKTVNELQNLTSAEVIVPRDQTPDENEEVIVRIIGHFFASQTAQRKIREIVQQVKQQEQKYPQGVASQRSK
UniProt Q9H6X2, residues 33-564: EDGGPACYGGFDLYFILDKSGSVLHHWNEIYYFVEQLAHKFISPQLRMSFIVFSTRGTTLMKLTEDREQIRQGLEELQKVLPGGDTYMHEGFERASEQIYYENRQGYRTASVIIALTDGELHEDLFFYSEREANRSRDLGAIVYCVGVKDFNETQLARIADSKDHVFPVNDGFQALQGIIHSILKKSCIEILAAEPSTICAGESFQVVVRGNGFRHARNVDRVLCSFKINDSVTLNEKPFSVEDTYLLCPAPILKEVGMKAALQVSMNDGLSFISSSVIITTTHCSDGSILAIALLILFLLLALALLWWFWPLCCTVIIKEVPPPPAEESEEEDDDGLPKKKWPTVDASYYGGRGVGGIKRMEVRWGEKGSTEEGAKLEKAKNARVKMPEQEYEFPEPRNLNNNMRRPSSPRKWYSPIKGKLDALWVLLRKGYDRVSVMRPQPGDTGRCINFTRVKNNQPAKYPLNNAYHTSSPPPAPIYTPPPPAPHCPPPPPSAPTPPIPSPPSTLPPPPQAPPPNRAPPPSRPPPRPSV
UniProt Q07157: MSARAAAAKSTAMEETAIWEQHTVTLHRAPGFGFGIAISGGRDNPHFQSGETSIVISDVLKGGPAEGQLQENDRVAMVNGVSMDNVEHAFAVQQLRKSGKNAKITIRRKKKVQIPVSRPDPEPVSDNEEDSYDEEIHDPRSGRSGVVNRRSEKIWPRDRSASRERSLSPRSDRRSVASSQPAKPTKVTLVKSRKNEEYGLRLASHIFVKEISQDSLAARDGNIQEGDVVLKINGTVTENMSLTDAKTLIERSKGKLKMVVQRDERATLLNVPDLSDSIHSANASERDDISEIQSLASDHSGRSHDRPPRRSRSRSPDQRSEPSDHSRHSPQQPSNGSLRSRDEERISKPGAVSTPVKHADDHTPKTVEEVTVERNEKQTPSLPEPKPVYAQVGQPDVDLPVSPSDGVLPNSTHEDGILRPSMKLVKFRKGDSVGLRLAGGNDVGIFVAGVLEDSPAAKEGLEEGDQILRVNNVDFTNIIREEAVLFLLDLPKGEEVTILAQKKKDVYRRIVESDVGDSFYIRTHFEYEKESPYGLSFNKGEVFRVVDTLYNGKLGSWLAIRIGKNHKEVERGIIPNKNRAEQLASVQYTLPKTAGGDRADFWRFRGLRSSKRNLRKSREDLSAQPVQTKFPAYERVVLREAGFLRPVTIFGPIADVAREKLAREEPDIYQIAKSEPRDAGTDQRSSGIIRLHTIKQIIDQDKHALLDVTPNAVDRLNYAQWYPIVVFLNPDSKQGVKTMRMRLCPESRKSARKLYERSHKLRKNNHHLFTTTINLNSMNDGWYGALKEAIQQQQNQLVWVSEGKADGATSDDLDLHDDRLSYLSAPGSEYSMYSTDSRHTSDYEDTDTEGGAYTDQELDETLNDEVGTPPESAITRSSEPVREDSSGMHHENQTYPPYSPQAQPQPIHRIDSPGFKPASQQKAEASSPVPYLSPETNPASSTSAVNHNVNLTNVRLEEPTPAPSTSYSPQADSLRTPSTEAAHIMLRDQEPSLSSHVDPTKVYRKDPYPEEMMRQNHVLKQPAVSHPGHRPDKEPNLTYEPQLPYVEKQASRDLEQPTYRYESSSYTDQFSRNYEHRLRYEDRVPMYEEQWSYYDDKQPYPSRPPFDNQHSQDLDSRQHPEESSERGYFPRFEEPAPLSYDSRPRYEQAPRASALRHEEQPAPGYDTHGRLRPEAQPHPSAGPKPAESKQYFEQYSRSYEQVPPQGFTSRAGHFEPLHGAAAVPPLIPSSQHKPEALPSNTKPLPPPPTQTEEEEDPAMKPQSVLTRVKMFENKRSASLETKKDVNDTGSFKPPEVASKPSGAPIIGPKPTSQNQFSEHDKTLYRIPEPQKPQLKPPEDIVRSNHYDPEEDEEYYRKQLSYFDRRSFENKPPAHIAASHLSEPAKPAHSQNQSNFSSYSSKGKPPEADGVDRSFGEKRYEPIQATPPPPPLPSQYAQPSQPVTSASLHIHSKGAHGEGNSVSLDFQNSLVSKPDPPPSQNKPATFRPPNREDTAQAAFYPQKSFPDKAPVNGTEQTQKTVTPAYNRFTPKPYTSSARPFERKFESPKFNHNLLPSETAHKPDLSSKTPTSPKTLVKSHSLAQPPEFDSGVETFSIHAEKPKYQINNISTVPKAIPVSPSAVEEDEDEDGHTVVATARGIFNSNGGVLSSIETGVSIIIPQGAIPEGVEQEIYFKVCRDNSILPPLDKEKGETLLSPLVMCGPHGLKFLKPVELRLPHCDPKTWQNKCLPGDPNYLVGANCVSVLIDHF

Experiments:
[1] = molecular target: T1, Tks5-BirA* (wild type Tks5α fused to the N-terminus of BirA*-HA) (UniProt Q5TCZ1); test: proximity labelling; BioID in living MDA-MB-231 cells stably expressing the BirA* fusion, seeded on gelatin, 50 uM biotin for 16 h; avidin-bead capture; LC-MS/MS with label-free quantification against the BirA* control pulldown, 1% permutation FDR
T1 sequence: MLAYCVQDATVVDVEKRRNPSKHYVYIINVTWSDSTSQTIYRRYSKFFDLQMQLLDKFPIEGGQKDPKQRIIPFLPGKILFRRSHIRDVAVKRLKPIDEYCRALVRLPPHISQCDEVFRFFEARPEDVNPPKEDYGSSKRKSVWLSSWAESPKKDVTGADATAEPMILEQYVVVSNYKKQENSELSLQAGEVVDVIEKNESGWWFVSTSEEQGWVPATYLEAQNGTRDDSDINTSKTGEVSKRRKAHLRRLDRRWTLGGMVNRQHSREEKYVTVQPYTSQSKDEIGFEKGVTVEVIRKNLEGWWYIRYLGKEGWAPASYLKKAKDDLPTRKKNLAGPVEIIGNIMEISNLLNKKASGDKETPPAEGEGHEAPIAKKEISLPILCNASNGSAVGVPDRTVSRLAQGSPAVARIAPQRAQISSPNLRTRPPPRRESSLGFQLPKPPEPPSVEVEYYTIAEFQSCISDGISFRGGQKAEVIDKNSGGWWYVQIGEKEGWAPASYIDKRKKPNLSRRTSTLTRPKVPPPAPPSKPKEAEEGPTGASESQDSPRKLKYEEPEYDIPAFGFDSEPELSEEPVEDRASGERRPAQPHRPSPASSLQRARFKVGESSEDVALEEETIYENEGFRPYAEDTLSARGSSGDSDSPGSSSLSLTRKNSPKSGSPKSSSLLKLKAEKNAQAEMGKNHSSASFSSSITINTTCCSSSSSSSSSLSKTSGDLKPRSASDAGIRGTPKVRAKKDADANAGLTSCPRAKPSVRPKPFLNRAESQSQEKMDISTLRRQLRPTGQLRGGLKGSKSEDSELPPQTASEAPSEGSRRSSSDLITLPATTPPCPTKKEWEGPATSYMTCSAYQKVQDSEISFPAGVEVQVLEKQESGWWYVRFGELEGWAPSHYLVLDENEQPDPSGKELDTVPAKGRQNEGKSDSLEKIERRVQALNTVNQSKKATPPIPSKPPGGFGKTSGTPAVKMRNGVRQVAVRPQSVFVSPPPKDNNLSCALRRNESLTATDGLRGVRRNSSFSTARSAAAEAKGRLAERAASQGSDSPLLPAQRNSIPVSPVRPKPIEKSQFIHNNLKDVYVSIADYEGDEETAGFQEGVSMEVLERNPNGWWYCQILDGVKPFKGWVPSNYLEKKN

[2] = molecular target: BirA* alone (BirA(R118G)-HA) (UniProt P06709); test: proximity labelling; BioID in living MDA-MB-231 cells stably expressing the BirA* fusion, seeded on gelatin, 50 uM biotin for 16 h; lysis (500 mM NaCl, 0.4% SDS, 2% Triton X-100); biotinylated proteins captured on avidin-coated beads; western blot with specific antibodies; also after knock-down of endogenous Tks5 (biotinylation unchanged)
[3] = molecular target: T1, Tks5-BirA* (wild type Tks5α fused to the N-terminus of BirA*-HA); test: as above
[4] = molecular target: T1, Tks5-BirA* (wild type Tks5α fused to the N-terminus of BirA*-HA); test: as above; remark: listed apart in the source
[5] = molecular target: ΔPX-Tks5-BirA* (Tks5α lacking its PX domain fused to the N-terminus of BirA*-HA); test: as above
[6] = molecular target: T2, Tks5-BirA* (wild type Tks5α fused to the N-terminus of BirA*-HA), Q5TCZ1; test: proximity labelling; BioID in living MDA-MB-231 cells stably expressing the BirA* fusion, seeded on gelatin, 50 uM biotin for 16 h; avidin-bead capture; LC-MS/MS with label-free quantification against the BirA* control pulldown, 1% permutation FDR; settings: remark: other sources report otherwise
T2 chain: T1 sequence

[7] = molecular target: T2, Tks5-BirA* (wild type Tks5α fused to …); test: proximity labelling; BioID in living MDA-MB-231 cells stably expressing the BirA* fusion, seeded on gelatin, 50 uM biotin for 16 h; lysis (500 mM NaCl, 0.4% SDS, 2% Triton X-100); biotinylated proteins captured on avidin-coated beads; western blot with specific antibodies; also after knock-down of endogenous Tks5 (biotinylation unchanged); settings: remark: other sources report otherwise

binding [1]: binds
Molecule: 5′-inositol lipid phosphatase Synaptojanin-1 (from UniProt O43426 1-1573)

binding [2]: no binding
binding [3]: no binding
Molecule: Grb2 (from UniProt P62993 1-217)

binding [1]: binds
Molecule: PDZ and LIM domain protein 1 (from UniProt O00151 1-329)

binding [1]: binds
Molecule: Ras-associated and pleckstrin homology containing protein 1 (from UniProt Q70E73 1-1250)

binding [1]: binds
binding [2]: no binding
binding [3]: binds
Molecule: Reticulon-4 (from UniProt Q9NQC3-2)

binding [1]: binds
Molecule: breast cancer anti-estrogen resistance protein 3 (from UniProt O75815 1-825)

binding [1]: binds
binding [3]: binds
Molecule: microtubule-associated protein 4 (from UniProt P27816 1-1152)

binding [1]: binds
B1: formin binding protein FNBP1 (protein, UniProt Q96RU3 1-617)
chain: MSWGTELWDQFDNLEKHTQWGIDILEKYIKFVKERTEIELSYAKQLRNLSKKYQPKKNSKEEEEYKYTSCKAFISNLNEMNDYAGQHEVISENMASQIIVDLARYVQELKQERKSNFHDGRKAQQHIETCWKQLESSKRRFERDCKEADRAQQYFEKMDADINVTKADVEKARQQAQIRHQMAEDSKADYSSILQKFNHEQHEYYHTHIPNIFQKIQEMEERRIVRMGESMKTYAEVDRQVIPIIGKCLDGIVKAAESIDQKNDSQLVIEAYKSGFEPPGDIEFEDYTQPMKRTVSDNSLSNSRGEGKPDLKFGGKSKGKLWPFIKKNKLMSLLTSPHQPPPPPPASASPSAVPNGPQSPKQQKEPLSHRFNEFMTSKPKIHCFRSLKRGLSLKLGATPEDFSNLPPEQRRKKLQQKVDELNKEIQKEMDQRDAITKMKDVYLKNPQMGDPASLDHKLAEVSQNIEKLRVETQKFEAWLAEVEGRLPARSEQARRQSGLYDSQNPPTVNNCAQDRESPDGSYTEEQSQESEMKVLATDFDDEFDDEEPLPAIGTCKALYTFEGQNEGTISVVEGETLYVIEEDKGDGWTRIRRNEDEEGYVPTSYVEVCLDKNAKDS

binding [1]: binds
binding [4]: binds
binding [5]: binds
B2: SHC-transforming protein 1 (protein, UniProt P29353 1-583)
chain: MDLLPPKPKYNPLRNESLSSLEEGASGSTPPEELPSPSASSLGPILPPLPGDDSPTTLCSFFPRMSNLRLANPAGGRPGSKGEPGRAADDGEGIVGAAMPDSGPLPLLQDMNKLSGGGGRRTRVEGGQLGGEEWTRHGSFVNKPTRGWLHPNDKVMGPGVSYLVRYMGCVEVLQSMRALDFNTRTQVTREAISLVCEAVPGAKGATRRRKPCSRPLSSILGRSNLKFAGMPITLTVSTSSLNLMAADCKQIIANHHMQSISFASGGDPDTAEYVAYVAKDPVNQRACHILECPEGLAQDVISTIGQAFELRFKQYLRNPPKLVTPHDRMAGFDGSAWDEEEEEPPDHQYYNDFPGKEPPLGGVVDMRLREGAAPGAARPTAPNAQTPSHLGATLPVGQPVGGDPEVRKQMPPPPPCPGRELFDDPSYVNVQNLDKARQAVGGAGPPNPAINGSAPRDLFDMKPFEDALRVPPPPQSVSMAEQLRGEPWFHGKLSRREAEALLQLNGDFLVRESTTTPGQYVLTGLQSGQPKHLLLVDPEGVVRTKDHRFESVSHLISYHMDNHLPIISAGSELCLQQPVERKL

binding [6]: binds
binding [7]: binds
B3: Cortactin, Q14247 1-550 (protein)
chain: MWKASAGHAVSIAQDDAGADDWETDPDFVNDVSEKEQRWGAKTVQGSGHQEHINIHKLRENVFQEHQTLKEKELETGPKASHGYGGKFGVEQDRMDKSAVGHEYQSKLSKHCSQVDSVRGFGGKFGVQMDRVDQSAVGFEYQGKTEKHASQKDYSSGFGGKYGVQADRVDKSAVGFDYQGKTEKHESQRDYSKGFGGKYGIDKDKVDKSAVGFEYQGKTEKHESQKDYVKGFGGKFGVQTDRQDKCALGWDHQEKLQLHESQKDYKTGFGGKFGVQSERQDSAAVGFDYKEKLAKHESQQDYSKGFGGKYGVQKDRMDKNASTFEDVTQVSSAYQKTVPVEAVTSKTSNIRANFENLAKEKEQEDRRKAEAERAQRMAKERQEQEEARRKLEEQARAKTQTPPVSPAPQPTEERLPSSPVYEDAASFKAELSYRGPVSGTEPEPVYSMEAADYREASSQQGLAYATEAVYESAEAPGHYPAEDSTYDEYENDLGITAVALYDYQAAGDDEISFDPDDIITNIEMIDDGWWRGVCKGRYGLFPANYVELRQ

binding [1]: binds
B4: PDZ and LIM domain protein 4 (protein, UniProt P50479 1-330)
chain: MPHSVTLRGPSPWGFRLVGGRDFSAPLTISRVHAGSKAALAALCPGDLIQAINGESTELMTHLEAQNRIKGCHDHLTLSVSRPEGRSWPSAPDDSKAQAHRIHIDPEIQDGSPTTSRRPSGTGTGPEDGRPSLGSPYGQPPRFPVPHNGSSEATLPAQMSTLHVSPPPSADPARGLPRSRDCRVDLGSEVYRMLREPAEPVAAEPKQSGSFRYLQGMLEAGEGGDWPGPGGPRNLKPTASKLGAPLSGLQGLPECTRCGHGIVGTIVKARDKLYHPECFMCSDCGLNLKQRGYFFLDERLYCESHAKARVKPPEGYDVVAVYPNAKVELV

More lines, now with the values behind:

Molecule: Arpin (from UniProt Q7Z6K5 1-226)
binding [1]: binds

Molecule: Dihydropyrimidase-like protein 3 (from UniProt Q14195 1-570)
binding [1]: binds

Molecule: Drebrin-like protein (from UniProt Q9UJU6 1-430)
binding [1]: binds

Molecule: N-WASP (from UniProt O00401 1-505)
binding [2]: no binding
binding [3]: binds

Molecule: RNA binding protein IGF2BP2/IMP2 (from UniProt Q9Y6M1 1-599)
binding [1]: binds

Molecule: anthrax toxin and collagen I receptor ANTXR1/TEM8 (from UniProt Q9H6X2 33-564)
binding [1]: binds

Molecule: tight junction protein TJP2 (from UniProt Q9UDY2 1-1190)
binding [1]: binds

Molecule: zonula occludens protein ZO-1/TJP1 (from UniProt Q07157 1-1748)
binding [1]: binds
